From PMC11044505 come the findings set out here.

These are yes or no findings as the source states them, for the method shown. In cells and extracts the contact can be indirect.

In the assay the target is Flag-tagged fruit fly Traf6 (Drosophila (fruit fly)). The assay can be described thus: co-IP; anti-Flag pulldown from lysates of tub-Gal4 > UAS:Flag-dTraf6 animals; eluted proteins analysed by SDS-PAGE and Western blotting.

B1: endogenous Drosophila SMN (protein, UniProt Q9VV74 1-226)
chain: MSDETNAAVWDDSLLVKTYDESVGLAREALARRLADSTNKREEENAAAAEEEAGEISATGGATSPEPVSFKVGDYARATYVDGVDYEGAVVSINEEKGTCVLRYLGYENEQEVLLVDLLPSWGKRVRREQFLIAKKDEDEQLSRPKASAGSHSKTPKSSRRSRISGGLVMPPMPPVPPMIVGQGDGAEQDFVAMLTAWYMSGYYTGLYQGKKEASTTSGKKKTPKK
On to B1, for which the binding entry is reported as “no binding”.
